Experimental findings from the supplement of paper PMC10735217 are described below.

The assay concerns HEK293A TEAD-LUC reporter. As to the kind of experiment: TEAD-luciferase reporter activity (YAP activation), robust Z score vs plate; higher = stronger YAP/TEAD activation. The conditions noted are these: 24 h. On the technique in general: Reporter assays use an easily measured gene product as a stand-in for the process of interest.

Counter-ions that a name gives are not always drawn. The list shows a part of the results. Repeats in this data set agree poorly, so a single value says little.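 The human kidney-derived cells carry a stably integrated construct of eight TEAD-binding elements driving luciferase, read by luminescence in a drug-repurposing library screen. A compound counts as a hit when its signal is more than five robust Z scores above the plate mean.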

In the case of `O=C1NC2(CCN(CC3CCCCC3)CC2)Oc2ccccc21`, the TEAD-luciferase reporter activity reads like this: (compound concentration: 200 nM) inactive: 1.22; (compound concentration: 10 uM) inactive: 1.47.

Take `COc1ncnc(NS(=O)(=O)c2ccc(N)cc2)c1OC` [Sulfadoxine]: the TEAD-luciferase reporter activity by setting is: (compound concentration: 200 nM) inactive: -1.39; (compound concentration: 2 uM) inactive: 1.59; (compound concentration: 10 uM) inactive: 1.01.

With `O=S(=O)(Nc1cc(-c2ccccn2)nn1-c1ccccc1)c1ccccc1`, the TEAD-luciferase reporter activity runs as follows: (compound concentration: 200 nM) inactive: -2.09; (compound concentration: 10 uM) inactive: 0.283.

`O=C(NN1CCCCC1)C1=NN(c2ccc(Cl)cc2Cl)C(c2ccc(Cl)cc2)C1` (stereo unspecified) [Rosonabant]: the TEAD-luciferase reporter activity is, setting by setting: (compound concentration: 200 nM) inactive: 0.415; (compound concentration: 2 uM) inactive: -0.0439; (compound concentration: 10 uM) inactive: 0.65.

For the molecule `CC(=O)OC1CCC2(C)C(=CCC3C2CCC2(C)C(C(C)=O)CCC32)C1` (stereo unspecified) [Pregnenolone acetate], the TEAD-luciferase reporter activity reads like this: (compound concentration: 200 nM) inactive: -1.38; (compound concentration: 2 uM) inactive: 0.246; (compound concentration: 10 uM) inactive: 1.22.

Turning to `NC[C@H]1OB(O)c2c(OCCCO)cccc21` [Epetraborole HCl], the TEAD-luciferase reporter activity (compound concentration: 200 nM) was inactive: -0.661, the TEAD-luciferase reporter activity (compound concentration: 2 uM) is inactive: -0.703 and the TEAD-luciferase reporter activity (compound concentration: 10 uM) is inactive: -1.26.

As to `CCCNc1cc(CC)c(-c2ccccc2)nn1`, the TEAD-luciferase reporter activity runs as follows: (compound concentration: 200 nM) active: 5.57; (compound concentration: 2 uM) inactive: -0.721; (compound concentration: 10 uM) inactive: -0.748.

Consider `N=C(N)NCCCOc1ccccc1`, for which the TEAD-luciferase reporter activity by setting is: (compound concentration: 200 nM) inactive: -0.92; (compound concentration: 2 uM) inactive: 0.299; (compound concentration: 10 uM) inactive: 0.826.

For `Fc1cc(-c2cccc(-c3ncn[nH]3)c2)cc(F)c1CNC1Cc2ccccc2C1`, the TEAD-luciferase reporter activity reads like this: (compound concentration: 200 nM) inactive: -1.42; (compound concentration: 2 uM) inactive: 1.03; (compound concentration: 10 uM) inactive: -0.68.

Regarding `CC(C)n1nc(-c2cccc(Cl)c2Cl)c(N)nc1=N` [Palatrigine], the TEAD-luciferase reporter activity is, setting by setting: (compound concentration: 200 nM) inactive: -0.443; (compound concentration: 2 uM) inactive: 3.43; (compound concentration: 10 uM) inactive: -1.4.

Take `CCCCCCCC[C@H](SCCCCCC)C(=O)Nc1c(SC)cc(C)nc1SC`: the TEAD-luciferase reporter activity is, setting by setting: (compound concentration: 200 nM) inactive: -0.286; (compound concentration: 2 uM) inactive: -0.0699; (compound concentration: 10 uM) inactive: -0.252.

With `CC(=O)c1ccc2c(c1)N(CCCN1CCN(CCO)CC1)c1ccccc1S2`, the TEAD-luciferase reporter activity is inactive: -0.814 (compound concentration: 200 nM), inactive: -0.796 (compound concentration: 2 uM) and inactive: 1.05 (compound concentration: 10 uM).

`CC(F)(F)CN1CCOc2c(nn(-c3ccccc3Cl)c2-c2ccc(Cl)cc2)C1=O`: the TEAD-luciferase reporter activity is, setting by setting: (compound concentration: 200 nM) inactive: 0.39; (compound concentration: 2 uM) inactive: -1.76; (compound concentration: 10 uM) active: 5.24.

Take `NC(=O)c1ncn([C@@H]2O[C@H](CO)[C@@H](O)[C@H]2O)c1N` [Acadesine]: the TEAD-luciferase reporter activity runs as follows: (compound concentration: 200 nM) inactive: 0.436; (compound concentration: 2 uM) inactive: -1.92; (compound concentration: 10 uM) inactive: 0.482.

As to `COc1ccccc1/C(C)=C/CN(C)CCCC(P(=O)(O)O)P(=O)(O)O`, the TEAD-luciferase reporter activity by setting is: (compound concentration: 200 nM) inactive: -0.299; (compound concentration: 2 uM) inactive: -1.13; (compound concentration: 10 uM) inactive: 1.11.

With `CN[C@@H]1C[C@H]2O[C@@](C)([C@@H]1OC)n1c3ccccc3c3c4c(c5c6ccccc6n2c5c31)C(=O)N[C@H]4O`, the TEAD-luciferase reporter activity is inactive: 0.735 (compound concentration: 200 nM), inactive: 0.76 (compound concentration: 2 uM) and inactive: -1.26 (compound concentration: 10 uM).

In the case of `CN(c1ccc([N+](=O)[O-])c(N2CCC(C(=O)O)CC2)n1)S(=O)(=O)c1ccccc1`, the TEAD-luciferase reporter activity (compound concentration: 200 nM) is inactive: 0.791, the TEAD-luciferase reporter activity (compound concentration: 2 uM) was inactive: -0.51 and the TEAD-luciferase reporter activity (compound concentration: 10 uM) is inactive: 1.69.

`NC(=O)c1ncn([C@@H]2O[C@H](CNCc3ccccc3)[C@@H](O)[C@H]2O)c1N`: the TEAD-luciferase reporter activity reads like this: (compound concentration: 200 nM) inactive: 2.13; (compound concentration: 2 uM) inactive: -0.867; (compound concentration: 10 uM) inactive: 0.449.

As to `COc1cc(NC(=O)Nc2cccc(CNC(=O)O[C@H]3CCOC3)c2)ccc1-c1cnco1` [Merimepodib], the TEAD-luciferase reporter activity by setting is: (compound concentration: 200 nM) inactive: 3.72; (compound concentration: 2 uM) inactive: -1.33; (compound concentration: 10 uM) inactive: 3.45.

Regarding `CN1CCCC(CC2c3ccccc3Sc3ccccc32)C1` (stereo unspecified) [Metixene hydrochloride], the TEAD-luciferase reporter activity was inactive: -2.29 (compound concentration: 200 nM), inactive: 0.151 (compound concentration: 2 uM) and inactive: -0.697 (compound concentration: 10 uM).

On to `CC1(C)CSSC[C@@H](C(=O)O)NC1=O` [Limazocic], for which the TEAD-luciferase reporter activity was inactive: 0.135 (compound concentration: 200 nM), inactive: -1.86 (compound concentration: 2 uM) and inactive: 0.575 (compound concentration: 10 uM).

For the molecule `O=C(/C=C/c1ccc([N+](=O)[O-])cc1)NC[C@H]1CN(c2ccc(N3CCOCC3)c(F)c2)C(=O)O1`, the TEAD-luciferase reporter activity was inactive: 0.403 (compound concentration: 200 nM), inactive: -1.7 (compound concentration: 2 uM) and inactive: 0.82 (compound concentration: 10 uM).

Consider `COc1ccc2c(c1)c(CC(=O)OCC(=O)O)c(C)n2C(=O)c1ccc(Cl)cc1` [acemetacin], for which the TEAD-luciferase reporter activity is inactive: -0.777 (compound concentration: 200 nM), inactive: 1.23 (compound concentration: 2 uM) and inactive: 1.3 (compound concentration: 10 uM).

Consider `N#CC(C#N)=C1NCCN1CCNCc1ccc(CN2CCCCC2)o1`, for which the TEAD-luciferase reporter activity is, setting by setting: (compound concentration: 200 nM) inactive: -0.423; (compound concentration: 2 uM) inactive: 2.1; (compound concentration: 10 uM) inactive: 2.54.

As to `Cc1ccc(C2Oc3ccccc3C(=O)C2(C)O)cc1` (stereo unspecified), the TEAD-luciferase reporter activity was inactive: -1.55 (compound concentration: 200 nM), inactive: -0.124 (compound concentration: 2 uM) and inactive: 0.676 (compound concentration: 10 uM).

For the molecule `Cc1ccnc(N2CCN(CCc3c(C)n4c5c(cc(CC(C)C)cc35)CCC4)CC2)c1`, the TEAD-luciferase reporter activity is inactive: -1.61 (compound concentration: 200 nM), inactive: -0.795 (compound concentration: 2 uM) and inactive: -0.737 (compound concentration: 10 uM).
